This is one part of the list. The source does not settle which construct or isoform was used.
Each sequence was assayed against T1, ETS1 (UniProt P14921) (assay: DAPPL (digital affinity profiling via proximity ligation, sequencing)). Conditions: 10 mM Tris-HCl pH 7.5, 50 mM NaCl, 1 mM DTT, 4% glycerol, room temperature, 30 min; GST-TFs on glutathione beads, 16-mer random dsDNA library, 0.1% …; high values mean tight binding; double strand, one strand shown; scale: fold enrichment (6-mer frequency, TF over GST control).
T1 sequence: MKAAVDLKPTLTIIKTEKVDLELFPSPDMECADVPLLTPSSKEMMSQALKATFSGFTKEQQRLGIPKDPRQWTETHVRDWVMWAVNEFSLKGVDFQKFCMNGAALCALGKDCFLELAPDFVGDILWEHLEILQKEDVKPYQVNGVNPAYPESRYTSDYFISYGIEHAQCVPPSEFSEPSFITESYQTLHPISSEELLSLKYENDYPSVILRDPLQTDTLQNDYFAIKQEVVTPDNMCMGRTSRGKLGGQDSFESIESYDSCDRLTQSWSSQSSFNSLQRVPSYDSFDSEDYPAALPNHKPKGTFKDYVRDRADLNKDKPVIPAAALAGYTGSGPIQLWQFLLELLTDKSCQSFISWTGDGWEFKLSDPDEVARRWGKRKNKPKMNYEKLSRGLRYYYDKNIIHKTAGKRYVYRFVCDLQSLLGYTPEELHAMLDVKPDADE

Sequence | binding signal
GCTATA | 1.23
TTGCAC | 1.26
TTGACA | 1.34
CCCAAT | 1.32
ACACAC | 1.3
TCGATC | 1.2
CCCTGG | 1.24
TGTAAT | 1.26
TGGTAT | 1.36
CTTTTA | 1.3
GCGTTC | 1.27
ATTTCT | 1.51
TCGTTC | 1.25
CTCTTC | 1.75
GTTTCC | 2.71
ATTAAT | 1.29
ATGACT | 1.41
CCGATT | 1.33
CACTTC | 3.51
ATTCAG | 1.2

Random excerpt: 2 records from the list, in no set order.
Sequence | binding signal
ATTTCT | 1.51
ATGACT | 1.41

(listing goes on)

Sequence | binding signal
TAACCT | 1.34
GTTAAC | 1.21
GATGAT | 1.32
TAAGAT | 1.18
TATTAA | 1.23
CCCTCC | 1.32
ACTCCT | 1.59
CGATTA | 1.16
CGAAAC | 1.16
CACAAT | 1.11
CTCTGC | 1.56
CTTCGC | 1.48
ATCCCC | 1.26
CAATAT | 1.21
CCGATA | 1.05
TAATCT | 1.42
CGACCG | 1.2
AACTCG | 1.4
ATCTAC | 1.34
TATCCT | 1.75
